Assay results reported in the supplement of paper PMC12823440, “Inhibitors supercharge kinase turnover through native proteolytic circuits” (Nature, 2025).
Structures can show the parent of a compound that is named as a salt. The list shows a part of the results. The calls rarely recur for the same compound in another form.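 Kinases, fused to nanoluciferase, were expressed in K562 cells; luminescence was measured every 4 h from 2 to 18 h as percent of control (DMSO = 100%, positive control = 0%). A time point is decreased if signal falls significantly (2 sigma). Hits were called by the authors by a rule that is not shown; the count of time points alone does not decide it.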

Sequences of proteins named here, by UniProt entry; tags and fusion partners are left off. A change or cut given only in a name is not applied to a line headed by its entry.
UniProt Q06187: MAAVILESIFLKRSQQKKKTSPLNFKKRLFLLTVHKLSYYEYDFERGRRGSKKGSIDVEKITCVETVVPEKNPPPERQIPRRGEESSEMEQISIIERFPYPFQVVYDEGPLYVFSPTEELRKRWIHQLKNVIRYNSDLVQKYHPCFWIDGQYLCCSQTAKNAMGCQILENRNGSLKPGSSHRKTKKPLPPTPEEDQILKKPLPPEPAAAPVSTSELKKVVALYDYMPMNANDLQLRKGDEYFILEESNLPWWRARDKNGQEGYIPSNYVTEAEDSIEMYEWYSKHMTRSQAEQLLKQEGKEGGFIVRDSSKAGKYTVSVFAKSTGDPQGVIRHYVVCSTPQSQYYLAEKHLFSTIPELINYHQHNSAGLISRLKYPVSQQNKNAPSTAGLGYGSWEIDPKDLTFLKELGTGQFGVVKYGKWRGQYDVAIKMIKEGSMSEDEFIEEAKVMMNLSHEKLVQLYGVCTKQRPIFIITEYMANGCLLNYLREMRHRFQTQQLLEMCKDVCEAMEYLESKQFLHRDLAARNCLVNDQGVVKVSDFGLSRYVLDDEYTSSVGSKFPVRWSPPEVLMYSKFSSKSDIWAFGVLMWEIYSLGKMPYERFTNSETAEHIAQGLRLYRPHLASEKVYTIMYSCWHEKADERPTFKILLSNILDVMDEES
UniProt Q9UQM7, whole entry: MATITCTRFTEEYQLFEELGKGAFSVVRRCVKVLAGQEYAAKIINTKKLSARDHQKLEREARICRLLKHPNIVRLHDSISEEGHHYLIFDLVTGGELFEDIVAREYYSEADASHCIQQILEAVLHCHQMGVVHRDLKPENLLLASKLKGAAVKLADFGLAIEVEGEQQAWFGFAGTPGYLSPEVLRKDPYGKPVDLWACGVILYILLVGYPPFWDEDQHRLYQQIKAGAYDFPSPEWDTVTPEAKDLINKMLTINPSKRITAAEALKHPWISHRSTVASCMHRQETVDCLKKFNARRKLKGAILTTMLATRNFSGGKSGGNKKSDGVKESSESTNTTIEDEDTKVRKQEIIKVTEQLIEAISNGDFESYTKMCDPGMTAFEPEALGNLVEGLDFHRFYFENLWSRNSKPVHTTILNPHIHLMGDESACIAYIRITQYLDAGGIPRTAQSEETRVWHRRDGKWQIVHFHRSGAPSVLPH
UniProt Q00526: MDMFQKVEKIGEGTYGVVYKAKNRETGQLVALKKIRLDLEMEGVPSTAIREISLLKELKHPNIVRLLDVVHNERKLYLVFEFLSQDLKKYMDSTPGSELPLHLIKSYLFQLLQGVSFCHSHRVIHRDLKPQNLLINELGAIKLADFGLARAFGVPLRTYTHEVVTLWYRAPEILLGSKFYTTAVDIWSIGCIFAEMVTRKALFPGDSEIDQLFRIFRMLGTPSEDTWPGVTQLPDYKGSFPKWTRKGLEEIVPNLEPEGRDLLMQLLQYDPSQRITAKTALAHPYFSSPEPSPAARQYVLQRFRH
UniProt Q00535, whole entry, looked up: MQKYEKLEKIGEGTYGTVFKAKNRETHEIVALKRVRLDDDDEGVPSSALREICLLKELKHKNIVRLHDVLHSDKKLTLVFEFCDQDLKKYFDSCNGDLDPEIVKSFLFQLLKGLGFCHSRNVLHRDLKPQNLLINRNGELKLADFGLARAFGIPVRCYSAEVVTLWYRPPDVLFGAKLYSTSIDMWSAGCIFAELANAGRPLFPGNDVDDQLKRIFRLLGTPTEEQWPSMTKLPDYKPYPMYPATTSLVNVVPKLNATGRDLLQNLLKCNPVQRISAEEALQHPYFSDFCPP
UniProt Q00534, whole entry: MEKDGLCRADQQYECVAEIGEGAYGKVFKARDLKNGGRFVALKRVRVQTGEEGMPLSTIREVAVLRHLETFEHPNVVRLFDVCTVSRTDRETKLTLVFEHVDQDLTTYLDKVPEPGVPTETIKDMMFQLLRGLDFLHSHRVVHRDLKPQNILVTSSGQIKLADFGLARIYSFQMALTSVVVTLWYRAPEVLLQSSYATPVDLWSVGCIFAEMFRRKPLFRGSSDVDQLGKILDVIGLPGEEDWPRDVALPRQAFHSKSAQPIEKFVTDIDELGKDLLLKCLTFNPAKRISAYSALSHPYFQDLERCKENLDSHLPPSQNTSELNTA
UniProt P50613: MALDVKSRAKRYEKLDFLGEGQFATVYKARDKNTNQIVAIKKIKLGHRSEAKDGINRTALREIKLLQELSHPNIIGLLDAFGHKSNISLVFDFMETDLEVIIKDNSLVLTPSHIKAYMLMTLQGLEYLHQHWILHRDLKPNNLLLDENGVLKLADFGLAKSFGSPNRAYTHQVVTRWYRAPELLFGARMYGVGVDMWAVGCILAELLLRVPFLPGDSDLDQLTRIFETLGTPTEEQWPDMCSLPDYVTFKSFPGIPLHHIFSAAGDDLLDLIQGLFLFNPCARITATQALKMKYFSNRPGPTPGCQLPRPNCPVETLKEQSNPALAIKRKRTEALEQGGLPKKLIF
UniProt O96017, whole entry: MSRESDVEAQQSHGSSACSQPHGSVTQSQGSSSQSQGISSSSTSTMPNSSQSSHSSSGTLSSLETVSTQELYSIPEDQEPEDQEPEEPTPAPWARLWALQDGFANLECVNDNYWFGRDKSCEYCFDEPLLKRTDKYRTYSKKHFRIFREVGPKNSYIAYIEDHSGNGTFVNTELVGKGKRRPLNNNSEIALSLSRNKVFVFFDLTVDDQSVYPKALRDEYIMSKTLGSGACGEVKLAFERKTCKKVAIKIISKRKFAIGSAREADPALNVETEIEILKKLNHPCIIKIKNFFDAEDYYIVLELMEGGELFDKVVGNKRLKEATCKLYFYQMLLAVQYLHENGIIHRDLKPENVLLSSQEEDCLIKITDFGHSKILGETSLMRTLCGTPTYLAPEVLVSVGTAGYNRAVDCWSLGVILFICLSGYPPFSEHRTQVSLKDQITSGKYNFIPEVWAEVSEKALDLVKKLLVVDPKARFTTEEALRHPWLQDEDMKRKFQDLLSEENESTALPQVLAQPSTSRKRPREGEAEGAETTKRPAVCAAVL
UniProt P07333, whole entry: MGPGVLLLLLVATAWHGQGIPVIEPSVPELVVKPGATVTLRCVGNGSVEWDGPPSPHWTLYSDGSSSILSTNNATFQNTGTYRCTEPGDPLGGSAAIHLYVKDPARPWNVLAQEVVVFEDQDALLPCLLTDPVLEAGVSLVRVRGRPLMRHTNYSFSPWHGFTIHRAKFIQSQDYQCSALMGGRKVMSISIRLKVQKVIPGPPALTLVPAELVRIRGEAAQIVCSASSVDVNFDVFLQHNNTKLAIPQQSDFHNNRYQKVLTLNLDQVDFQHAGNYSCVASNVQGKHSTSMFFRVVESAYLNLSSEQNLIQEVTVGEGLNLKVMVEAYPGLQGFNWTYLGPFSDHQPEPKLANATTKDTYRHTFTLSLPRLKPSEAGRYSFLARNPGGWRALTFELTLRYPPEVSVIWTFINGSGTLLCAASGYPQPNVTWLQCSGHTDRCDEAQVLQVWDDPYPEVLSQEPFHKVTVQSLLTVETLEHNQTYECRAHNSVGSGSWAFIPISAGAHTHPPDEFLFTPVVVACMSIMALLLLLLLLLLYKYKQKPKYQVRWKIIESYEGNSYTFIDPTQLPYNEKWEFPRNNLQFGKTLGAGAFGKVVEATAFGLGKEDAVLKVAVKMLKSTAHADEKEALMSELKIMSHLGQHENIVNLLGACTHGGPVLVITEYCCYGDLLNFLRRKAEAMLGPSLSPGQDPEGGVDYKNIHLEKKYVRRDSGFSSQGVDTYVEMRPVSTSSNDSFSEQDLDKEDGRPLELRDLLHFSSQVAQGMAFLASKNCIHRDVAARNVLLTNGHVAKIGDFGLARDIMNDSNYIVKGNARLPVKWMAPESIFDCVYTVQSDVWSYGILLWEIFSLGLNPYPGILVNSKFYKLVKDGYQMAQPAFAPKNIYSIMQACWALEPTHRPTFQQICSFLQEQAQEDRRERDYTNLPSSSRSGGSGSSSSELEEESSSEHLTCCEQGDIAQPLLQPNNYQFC
UniProt P41240: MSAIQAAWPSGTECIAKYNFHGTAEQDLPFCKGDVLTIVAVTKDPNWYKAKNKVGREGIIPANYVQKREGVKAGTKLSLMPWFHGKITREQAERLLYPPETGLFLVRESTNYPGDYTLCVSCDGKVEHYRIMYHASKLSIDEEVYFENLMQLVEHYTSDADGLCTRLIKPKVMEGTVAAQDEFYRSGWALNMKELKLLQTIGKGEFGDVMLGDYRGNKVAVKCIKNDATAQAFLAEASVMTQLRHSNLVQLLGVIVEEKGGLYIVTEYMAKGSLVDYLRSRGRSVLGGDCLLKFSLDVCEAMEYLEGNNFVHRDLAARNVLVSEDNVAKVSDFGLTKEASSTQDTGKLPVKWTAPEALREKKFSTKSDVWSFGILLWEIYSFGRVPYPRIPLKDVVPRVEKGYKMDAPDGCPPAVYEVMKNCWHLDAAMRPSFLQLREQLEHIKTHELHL
UniProt P48729: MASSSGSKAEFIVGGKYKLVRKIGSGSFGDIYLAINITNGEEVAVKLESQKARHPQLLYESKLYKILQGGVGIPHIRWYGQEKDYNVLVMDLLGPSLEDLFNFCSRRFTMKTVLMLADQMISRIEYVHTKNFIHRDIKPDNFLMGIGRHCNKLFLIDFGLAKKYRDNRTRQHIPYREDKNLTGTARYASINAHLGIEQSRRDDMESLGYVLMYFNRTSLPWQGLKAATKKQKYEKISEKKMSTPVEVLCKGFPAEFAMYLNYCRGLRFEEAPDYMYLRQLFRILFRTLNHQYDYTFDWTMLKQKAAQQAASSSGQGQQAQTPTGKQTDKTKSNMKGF
UniProt P48730: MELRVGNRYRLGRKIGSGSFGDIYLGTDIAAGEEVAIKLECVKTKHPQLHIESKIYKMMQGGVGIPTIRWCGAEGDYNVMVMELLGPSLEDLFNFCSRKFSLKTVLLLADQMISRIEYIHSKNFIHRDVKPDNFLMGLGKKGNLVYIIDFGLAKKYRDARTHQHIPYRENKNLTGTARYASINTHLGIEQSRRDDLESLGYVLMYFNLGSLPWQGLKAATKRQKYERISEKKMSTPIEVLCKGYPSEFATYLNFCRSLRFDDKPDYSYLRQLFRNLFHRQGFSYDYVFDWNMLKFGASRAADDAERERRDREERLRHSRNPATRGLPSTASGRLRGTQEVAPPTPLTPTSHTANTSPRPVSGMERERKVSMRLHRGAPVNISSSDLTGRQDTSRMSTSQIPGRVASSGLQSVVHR
UniProt Q9Y463, whole entry, looked up: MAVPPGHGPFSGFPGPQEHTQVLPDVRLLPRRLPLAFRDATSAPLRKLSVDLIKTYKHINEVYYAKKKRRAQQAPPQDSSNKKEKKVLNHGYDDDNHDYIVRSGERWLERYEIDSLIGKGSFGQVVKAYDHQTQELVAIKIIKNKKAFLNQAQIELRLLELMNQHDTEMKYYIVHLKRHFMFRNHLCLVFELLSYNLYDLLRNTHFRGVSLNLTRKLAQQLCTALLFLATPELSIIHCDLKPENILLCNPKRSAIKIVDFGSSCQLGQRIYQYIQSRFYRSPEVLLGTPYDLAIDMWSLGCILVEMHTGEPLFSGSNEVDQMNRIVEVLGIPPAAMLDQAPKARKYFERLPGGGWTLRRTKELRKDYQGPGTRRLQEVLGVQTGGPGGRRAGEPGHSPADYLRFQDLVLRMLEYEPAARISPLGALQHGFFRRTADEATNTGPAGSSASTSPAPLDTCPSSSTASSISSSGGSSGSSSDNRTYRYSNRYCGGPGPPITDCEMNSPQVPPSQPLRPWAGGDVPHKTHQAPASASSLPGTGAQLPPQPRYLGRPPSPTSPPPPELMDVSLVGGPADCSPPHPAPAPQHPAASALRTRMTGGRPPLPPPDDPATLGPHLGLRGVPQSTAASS
UniProt Q92630: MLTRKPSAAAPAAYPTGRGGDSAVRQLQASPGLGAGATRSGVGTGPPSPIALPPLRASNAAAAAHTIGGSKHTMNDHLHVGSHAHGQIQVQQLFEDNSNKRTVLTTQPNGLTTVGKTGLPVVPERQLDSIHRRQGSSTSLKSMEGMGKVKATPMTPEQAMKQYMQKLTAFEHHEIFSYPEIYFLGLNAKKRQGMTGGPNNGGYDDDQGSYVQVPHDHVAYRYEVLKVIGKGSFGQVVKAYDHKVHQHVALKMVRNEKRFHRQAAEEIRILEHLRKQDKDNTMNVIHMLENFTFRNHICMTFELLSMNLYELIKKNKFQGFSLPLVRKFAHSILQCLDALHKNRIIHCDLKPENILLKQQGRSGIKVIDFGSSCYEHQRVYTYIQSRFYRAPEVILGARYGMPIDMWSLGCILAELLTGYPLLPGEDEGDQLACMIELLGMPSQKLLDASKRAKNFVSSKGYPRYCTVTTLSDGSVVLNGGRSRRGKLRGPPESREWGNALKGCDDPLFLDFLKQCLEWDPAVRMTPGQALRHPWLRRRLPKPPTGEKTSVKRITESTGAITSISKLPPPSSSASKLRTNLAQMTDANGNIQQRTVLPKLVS

How the values were obtained:
Assay in all cases: kinase-Nluc reporter destabilization hit call (1 = scored as downregulated) (binary); higher = compound decreases kinase abundance
Conditions in all cases: K562; 2-18 h
[1] = tested on: BRAF_V600E
[2] = target: BTK (UniProt Q06187)
[3] = target: CAMK2A (UniProt Q9UQM7)
[4] = target: CAMK2G (UniProt Q13555)
[5] = target: CDK10 (UniProt Q15131)
[6] = target: CDK2 (UniProt P24941)
[7] = target: CDK3 (UniProt Q00526)
[8] = target: CDK4 (UniProt P11802)
[9] = target: CDK5 (UniProt Q00535)
[10] = target: CDK6 (UniProt Q00534)
[11] = target: CDK7 (UniProt P50613)
[12] = target: CDK9 (UniProt P50750)
[13] = target: CHEK2 (UniProt O96017)
[14] = target: CSF1R (UniProt P07333)
[15] = target: CSK (UniProt P41240)
[16] = target: CSNK1A1 (UniProt P48729)
[17] = target: CSNK1D (UniProt P48730)
[18] = target: DDR1 (UniProt Q08345)
[19] = target: DYRK1B (UniProt Q9Y463)
[20] = target: DYRK2 (UniProt Q92630)

Measured: kinase-Nluc reporter destabilization hit call

C=CC(=O)Nc1cccc(CNc2nc(Nc3ccc(N4CCN(C)CC4)cc3OC)ncc2Cl)c1 (10 µM)
inactive: [1] 0 | [2] 0 | [3] 0 | [4] 0 | [5] 0 | [6] 0 | [7] 0 | [8] 0 | [9] 0 | [10] 0 | [11] 0 | [12] 0 | [13] 0 | [14] 0 | [15] 0 | [16] 0 | [17] 0 | [18] 0 | [19] 0 | [20] 0

COc1ccc(S(=O)(=O)NCc2ccc(C(=O)NCCc3ccc(Cl)cn3)cc2)cc1 (10 µM)
inactive: [1] 0 | [2] 0 | [3] 0 | [4] 0 | [5] 0 | [6] 0 | [7] 0 | [8] 0 | [9] 0 | [10] 0 | [11] 0 | [12] 0 | [13] 0 | [14] 0 | [15] 0 | [16] 0 | [17] 0 | [18] 0 | [19] 0 | [20] 0

C[C@H](Nc1ncnc2nc[nH]c12)c1cc2cccc(Cl)c2c(=O)n1-c1ccccc1 [Duvelisib] (10 µM)
inactive: [1] 0 | [2] 0 | [3] 0 | [4] 0 | [5] 0 | [6] 0 | [7] 0 | [8] 0 | [9] 0 | [10] 0 | [11] 0 | [12] 0 | [13] 0 | [14] 0 | [15] 0 | [16] 0 | [17] 0 | [18] 0 | [19] 0 | [20] 0

CNC(=O)c1cc2c(Oc3ccc(NC(=S)NC(=O)Cc4ccccc4)cc3F)ccnc2cc1OC [TAS-115 mesylate] (10 µM)
inactive: [1] 0 | [2] 0 | [3] 0 | [4] 0 | [5] 0 | [6] 0 | [7] 0 | [8] 0 | [9] 0 | [10] 0 | [11] 0 | [12] 0 | [13] 0 | [14] 0 | [15] 0 | [16] 0 | [17] 0 | [18] 0 | [19] 0 | [20] 0

CC(C)CNc1ccnc(NCc2csc(-c3ccccc3)n2)n1 [KHS101 hydrochloride] (2.5 µM)
inactive: [1] 0 | [2] 0 | [3] 0 | [4] 0 | [5] 0 | [6] 0 | [7] 0 | [8] 0 | [9] 0 | [10] 0 | [11] 0 | [12] 0 | [13] 0 | [14] 0 | [15] 0 | [16] 0 | [17] 0 | [18] 0 | [19] 0 | [20] 0

NC(=S)n1[nH]c(-c2ccc([N+](=O)[O-])cc2)c(N=Nc2cccc(Cl)c2)c1=O (2.5 µM)
inactive: [1] 0 | [2] 0 | [3] 0 | [4] 0 | [5] 0 | [6] 0 | [7] 0 | [8] 0 | [9] 0 | [10] 0 | [11] 0 | [12] 0 | [13] 0 | [14] 0 | [15] 0 | [16] 0 | [17] 0 | [18] 0 | [19] 0 | [20] 0

Cc1nc(-c2cnn(C)c2)nc2c1[nH]c1ncc(-c3ccc(N4CCN(C)CC4)cc3)cc12 [GNE 220 (hydrochloride)] (10 µM)
inactive: [1] 0 | [2] 0 | [3] 0 | [4] 0 | [5] 0 | [6] 0 | [7] 0 | [8] 0 | [9] 0 | [10] 0 | [11] 0 | [12] 0 | [13] 0 | [14] 0 | [15] 0 | [16] 0 | [17] 0 | [18] 0 | [19] 0 | [20] 0

C#Cc1cccc(Nc2ncnc3cc(OC)c(OCCCCCCC(=O)NO)cc23)c1 (2.5 µM)
inactive: [1] 0 | [2] 0 | [3] 0 | [4] 0 | [5] 0 | [6] 0 | [7] 0 | [8] 0 | [9] 0 | [10] 0 | [11] 0 | [12] 0 | [13] 0 | [14] 0 | [15] 0 | [16] 0 | [17] 0 | [18] 0 | [19] 0 | [20] 0

Retrieved one by one from above (2):
CNC(=O)c1cc2c(Oc3ccc(NC(=S)NC(=O)Cc4ccccc4)cc3F)ccnc2cc1OC [TAS-115 mesylate] (10 µM)
inactive: [1] 0 | [2] 0 | [3] 0 | [4] 0 | [5] 0 | [6] 0 | [7] 0 | [8] 0 | [9] 0 | [10] 0 | [11] 0 | [12] 0 | [13] 0 | [14] 0 | [15] 0 | [16] 0 | [17] 0 | [18] 0 | [19] 0 | [20] 0

NC(=S)n1[nH]c(-c2ccc([N+](=O)[O-])cc2)c(N=Nc2cccc(Cl)c2)c1=O (2.5 µM)
inactive: [1] 0 | [2] 0 | [3] 0 | [4] 0 | [5] 0 | [6] 0 | [7] 0 | [8] 0 | [9] 0 | [10] 0 | [11] 0 | [12] 0 | [13] 0 | [14] 0 | [15] 0 | [16] 0 | [17] 0 | [18] 0 | [19] 0 | [20] 0

(list continues)

Cn1cc(C2=C(c3cn(CCCSC(=N)N)c4ccccc34)C(=O)NC2=O)c2ccccc21 [Ro 31-8220 (mesylate)] (2.5 µM)
active: [12] 1
inactive: [1] 0 | [2] 0 | [3] 0 | [4] 0 | [5] 0 | [6] 0 | [7] 0 | [8] 0 | [9] 0 | [10] 0 | [11] 0 | [13] 0 | [14] 0 | [15] 0 | [16] 0 | [17] 0 | [18] 0 | [19] 0 | [20] 0

O=C1NC(=Nc2c(Cl)cccc2Cl)S/C1=C\c1ccc2nccnc2c1 (2.5 µM)
inactive: [1] 0 | [2] 0 | [3] 0 | [4] 0 | [5] 0 | [6] 0 | [7] 0 | [8] 0 | [9] 0 | [10] 0 | [11] 0 | [12] 0 | [13] 0 | [14] 0 | [15] 0 | [16] 0 | [17] 0 | [18] 0 | [19] 0 | [20] 0

C=CC(=O)N1C[C@H](COc2nc(Nc3cnn(C)c3)nc3[nH]cc(Cl)c23)[C@@H](OC)C1 (2.5 µM)
inactive: [1] 0 | [2] 0 | [3] 0 | [4] 0 | [5] 0 | [6] 0 | [7] 0 | [8] 0 | [9] 0 | [10] 0 | [11] 0 | [12] 0 | [13] 0 | [14] 0 | [15] 0 | [16] 0 | [17] 0 | [18] 0 | [19] 0 | [20] 0

NC(=O)c1cnc2[nH]ccc2c1N[C@@H]1[C@@H]2CC3C[C@H]1C[C@@](O)(C3)C2 [Peficitinib] (10 µM)
inactive: [1] 0 | [2] 0 | [3] 0 | [4] 0 | [5] 0 | [6] 0 | [7] 0 | [8] 0 | [9] 0 | [10] 0 | [11] 0 | [12] 0 | [13] 0 | [14] 0 | [15] 0 | [16] 0 | [17] 0 | [18] 0 | [19] 0 | [20] 0

C=CC(=O)Nc1cc(Nc2nccc(-n3cc(CN(C)C)c(-c4ccccc4)n3)n2)c(OC)cc1N1CCOCC1 [Lazertinib] (10 µM)
inactive: [1] 0 | [2] 0 | [3] 0 | [4] 0 | [5] 0 | [6] 0 | [7] 0 | [8] 0 | [9] 0 | [10] 0 | [11] 0 | [12] 0 | [13] 0 | [14] 0 | [15] 0 | [16] 0 | [17] 0 | [18] 0 | [19] 0 | [20] 0

CCCCCCCC/C=C\CCCCCCCCCCCC(=O)O [Erucic acid] (10 µM)
inactive: [1] 0 | [2] 0 | [3] 0 | [4] 0 | [5] 0 | [6] 0 | [7] 0 | [8] 0 | [9] 0 | [10] 0 | [11] 0 | [12] 0 | [13] 0 | [14] 0 | [15] 0 | [16] 0 | [17] 0 | [18] 0 | [19] 0 | [20] 0

Cc1ccc(NC(=O)c2ccc(CN(CCN(C)C)C(=O)c3cccnc3)cc2)cc1Nc1nccc(-c2cccnc2)n1 [PDGFRα kinase inhibitor 1] (10 µM)
inactive: [1] 0 | [2] 0 | [3] 0 | [4] 0 | [5] 0 | [6] 0 | [7] 0 | [8] 0 | [9] 0 | [10] 0 | [11] 0 | [12] 0 | [13] 0 | [14] 0 | [15] 0 | [16] 0 | [17] 0 | [18] 0 | [19] 0 | [20] 0

c1ccc(-c2nc3c(c(-n4ccc5cnccc54)n2)CCC3)nc1 (10 µM)
inactive: [1] 0 | [2] 0 | [3] 0 | [4] 0 | [5] 0 | [6] 0 | [7] 0 | [8] 0 | [9] 0 | [10] 0 | [11] 0 | [12] 0 | [13] 0 | [14] 0 | [15] 0 | [16] 0 | [17] 0 | [18] 0 | [19] 0 | [20] 0

N#Cc1c2nc3ccccc3nc2n2ccc(NC(=O)c3cccs3)cc12 (10 µM)
inactive: [1] 0 | [2] 0 | [3] 0 | [4] 0 | [5] 0 | [6] 0 | [7] 0 | [8] 0 | [9] 0 | [10] 0 | [11] 0 | [12] 0 | [13] 0 | [14] 0 | [15] 0 | [16] 0 | [17] 0 | [18] 0 | [19] 0 | [20] 0
